The assay addresses His-CRABP1 (UniProt P29762). Description: pull-down; His-CRABP1 (5 mM as printed) immobilised on Ni-NTA resin, incubated with 1000 ug pre-cleared P19 lysate overnight at 4 °C; 50 mM Tris pH 8.0, 150 mM NaCl, 0.2% NP-40, 20% glycerol, 50 mM imidazole; five washes with 20 mM imidazole; western blot; only the target purified. A general note: Immunoblotting shows a protein as a band on a membrane.

The chains behind the UniProt entries cited, without tags or fusion partners.
UniProt Q9DBC7: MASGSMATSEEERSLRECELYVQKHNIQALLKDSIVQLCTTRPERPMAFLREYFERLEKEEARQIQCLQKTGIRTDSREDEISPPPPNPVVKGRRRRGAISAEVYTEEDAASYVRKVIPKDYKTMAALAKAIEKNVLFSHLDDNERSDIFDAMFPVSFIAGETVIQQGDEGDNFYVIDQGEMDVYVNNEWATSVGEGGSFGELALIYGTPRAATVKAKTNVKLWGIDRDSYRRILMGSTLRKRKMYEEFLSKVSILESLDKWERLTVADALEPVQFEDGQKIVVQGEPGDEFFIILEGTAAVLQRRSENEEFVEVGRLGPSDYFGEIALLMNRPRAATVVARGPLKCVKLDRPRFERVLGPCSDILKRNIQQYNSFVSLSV

Results are given in words; binding and its absence hold for the method and conditions named. Binding seen in cells or lysates may run through a third protein. Some results given as binding are weak or reduced against the parent protein; the word gives no strength.

The text below walks through data of PMC11285139.

For the substance “PKA RI-alpha (endogenous in P19 cells) (from UniProt Q9DBC7 1-381)”, the binding entry is “binds”.
